These are yes or no findings as the source states them, for the method shown. Some results given as binding are weak or reduced against the parent protein; the word gives no strength. Sequences can lack the tags named with a protein.

Assay [1] addresses T1, GLD-3 (yeast two-hybrid fusion, isoform not stated) (C. elegans) (UniProt Q95ZK7).
T1 sequence: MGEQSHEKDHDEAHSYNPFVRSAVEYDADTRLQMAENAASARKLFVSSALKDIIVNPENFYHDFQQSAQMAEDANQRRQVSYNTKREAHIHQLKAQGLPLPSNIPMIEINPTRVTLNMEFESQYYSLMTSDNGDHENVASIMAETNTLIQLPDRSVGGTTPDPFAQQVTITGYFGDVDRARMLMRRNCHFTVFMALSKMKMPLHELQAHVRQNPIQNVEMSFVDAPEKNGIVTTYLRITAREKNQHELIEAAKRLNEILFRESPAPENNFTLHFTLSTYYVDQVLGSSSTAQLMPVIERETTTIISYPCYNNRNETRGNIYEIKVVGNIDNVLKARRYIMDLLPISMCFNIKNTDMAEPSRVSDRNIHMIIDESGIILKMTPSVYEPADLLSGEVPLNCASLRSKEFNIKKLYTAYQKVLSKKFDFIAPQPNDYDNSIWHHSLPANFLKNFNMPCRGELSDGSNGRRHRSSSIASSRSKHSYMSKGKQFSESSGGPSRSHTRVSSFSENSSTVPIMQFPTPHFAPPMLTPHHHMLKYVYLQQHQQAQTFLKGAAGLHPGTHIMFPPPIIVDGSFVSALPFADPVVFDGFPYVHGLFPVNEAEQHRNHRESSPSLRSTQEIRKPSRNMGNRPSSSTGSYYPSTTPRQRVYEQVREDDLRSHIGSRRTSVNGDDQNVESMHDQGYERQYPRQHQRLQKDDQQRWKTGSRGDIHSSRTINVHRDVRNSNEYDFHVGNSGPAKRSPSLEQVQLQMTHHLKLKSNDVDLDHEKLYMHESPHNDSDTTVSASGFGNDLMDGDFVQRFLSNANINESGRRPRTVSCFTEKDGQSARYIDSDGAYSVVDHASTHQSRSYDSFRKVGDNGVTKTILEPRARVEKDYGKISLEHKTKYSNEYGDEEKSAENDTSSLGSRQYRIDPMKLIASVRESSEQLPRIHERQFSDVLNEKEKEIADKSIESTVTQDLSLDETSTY
Kind of assay: two-hybrid; directed yeast 2-hybrid binding-tests, data not shown.

In assay [2] the target is T2, FBF-1 (yeast two-hybrid fusion) (C. elegans) (UniProt Q9N5M6).
T2 sequence: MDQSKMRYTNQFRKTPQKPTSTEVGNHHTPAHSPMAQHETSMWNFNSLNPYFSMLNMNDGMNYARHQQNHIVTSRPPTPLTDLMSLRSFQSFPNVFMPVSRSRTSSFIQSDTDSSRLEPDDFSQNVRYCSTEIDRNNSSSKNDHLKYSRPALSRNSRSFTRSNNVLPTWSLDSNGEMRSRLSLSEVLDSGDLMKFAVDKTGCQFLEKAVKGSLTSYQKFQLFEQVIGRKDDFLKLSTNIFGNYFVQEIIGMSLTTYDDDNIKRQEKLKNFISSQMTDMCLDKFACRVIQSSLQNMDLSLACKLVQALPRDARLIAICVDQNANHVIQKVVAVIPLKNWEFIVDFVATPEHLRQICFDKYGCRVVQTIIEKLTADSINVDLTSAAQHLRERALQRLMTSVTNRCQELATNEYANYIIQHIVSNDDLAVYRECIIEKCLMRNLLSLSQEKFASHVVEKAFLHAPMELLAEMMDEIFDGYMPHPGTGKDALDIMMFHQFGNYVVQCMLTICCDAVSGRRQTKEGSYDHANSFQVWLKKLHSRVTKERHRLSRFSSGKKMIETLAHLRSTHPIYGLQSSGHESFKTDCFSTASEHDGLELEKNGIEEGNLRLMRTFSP
Description: two-hybrid; yeast; protein pairs fused to the LexA DNA binding domain and the Gal4 transcriptional activation domain; beta-galactosidase activities in arbitrary units.

Assay [3] has as its target T3, GLD-3L (yeast two-hybrid fusion) (C. elegans) (UniProt Q95ZK7).
T3 sequence: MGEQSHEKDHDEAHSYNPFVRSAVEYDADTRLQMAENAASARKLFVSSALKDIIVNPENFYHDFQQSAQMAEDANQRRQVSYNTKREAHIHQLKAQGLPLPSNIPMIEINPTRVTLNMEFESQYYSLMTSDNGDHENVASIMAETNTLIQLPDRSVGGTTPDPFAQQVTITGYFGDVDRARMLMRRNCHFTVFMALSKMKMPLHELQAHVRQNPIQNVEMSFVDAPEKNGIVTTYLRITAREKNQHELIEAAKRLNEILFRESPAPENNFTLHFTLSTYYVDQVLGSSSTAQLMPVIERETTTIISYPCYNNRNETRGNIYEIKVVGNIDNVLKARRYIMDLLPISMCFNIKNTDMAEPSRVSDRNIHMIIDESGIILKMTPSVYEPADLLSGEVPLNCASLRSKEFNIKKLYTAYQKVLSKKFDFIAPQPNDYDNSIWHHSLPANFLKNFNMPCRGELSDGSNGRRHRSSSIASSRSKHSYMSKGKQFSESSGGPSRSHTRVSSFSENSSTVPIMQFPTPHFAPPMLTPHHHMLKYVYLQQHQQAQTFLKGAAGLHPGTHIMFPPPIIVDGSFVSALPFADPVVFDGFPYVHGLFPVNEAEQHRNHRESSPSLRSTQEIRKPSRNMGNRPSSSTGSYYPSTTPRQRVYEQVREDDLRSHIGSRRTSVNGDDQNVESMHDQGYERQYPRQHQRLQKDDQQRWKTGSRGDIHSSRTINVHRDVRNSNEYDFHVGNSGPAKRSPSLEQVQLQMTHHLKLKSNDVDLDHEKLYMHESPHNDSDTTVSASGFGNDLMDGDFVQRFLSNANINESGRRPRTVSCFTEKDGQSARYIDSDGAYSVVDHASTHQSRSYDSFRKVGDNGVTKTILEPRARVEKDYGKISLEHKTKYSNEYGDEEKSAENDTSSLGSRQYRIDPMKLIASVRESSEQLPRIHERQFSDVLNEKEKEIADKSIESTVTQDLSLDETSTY
The description is as above.

B1: GLS-1 (yeast two-hybrid fusion) (protein, UniProt Q8I4M5 1-1052)
chain: MRCLISYLFHSFLIFLKFIRSDVTALTLQEKRKKSRLTGILMKSMANKKNHQQKKSTDGSTMNGNNATATAAATTQNSSQIGQNSNSSHSVTNDNTSSNNASTSTSSITSTTTTTTTVPSSQQSQSQNQYSHQRLSSTSSTSQQTGISKFPAKKAGHNELEKTSNTANSQSGAFKGTTNKDRPKEKEKNTHSGNRQSQVNHNHHHSNHVSGNQQNRKNKNRDHSNQSYRGGYTHNHNNYHSLENAKSSGFLSNSSLSSAGQISASSAPPVSTTPTAIPIFQESKIVQTDPPVEEAKKKKEKPKIKRDEEPMPYKSTDPKNMDSVMAFKEHDEWDKVEFMCELVSFLSPTDLRLLGNCIEGSVRCYNNQMRPVEKTSNCSDPTAGLPQFVCSPPPPPQQVYYFPGIADAALYQTRNAVNSVFVQQHPPGLPPLLGGMQNIMYPPDANFHHSTSCTTPSSSVSVANKDVNNVPVVLSSSVNGISNNIPSDRQQLDSKPNTARGSSGNINQSNTTSPEPEPGSNHISTTAANPAHPTSVTVPQSVPPVPQEPELFLKSVLDLTSYIYTLMAVCSSTNRKSAAKISDYVQNVILREKSQILERIPDELDKITVLQEIGKIVAAMTHHPAITLDDKMKYAALRDGLRAQIETLFRQYYTTQKQLEQSNLVVPSSQAVGDENDTDSDHESEEEFEPLSGVMGSRFESNPVQPSPSVPGTFFIIRFIGRQIEKNDNLFSLEIHWSDGDRTFAQRSRDQLKALQHRLLDEFGQQRSEKYLHQGCTTSYSSFDDDNKKLSASTSTMETFAPNGERIVPRLARDATPAQYVQYINELSDLPARMMLSAVICEEFNGTRAKTEDLLQETREASDGLIYSRWKNPRAKSPVRYFKRNATGSIDPIELPVNMQPFLYSNIPQTQVQTLFPSCSNCGGPHAPKHCEKQTLLSKKGDHRTRSDGEGSQQNGGTSSSNSYAPIHANLPHAVYIENPQAMLGSNHFNHHQQQHIIQNTIFHNGGQFRANGTYEPQIPIAYYHAQGTVQNSNNTGGVNGNSGGGNQNSNF
Turning to B1, the binding result in assay [1] is given as “binds”; in assay [2], “no binding”; in assay [3], “binds”.

Values taken from article PMC2679207, “GLS-1, a Novel P Granule Component, Modulates a Network of Conserved RNA Regulators to Influence Germ Cell Fate Decisions” (PLoS Genetics, 2009).
